The values that follow come from PMC6668969.

Sequences of proteins named here, by UniProt entry; tags and fusion partners are left off.
UniProt Q03135: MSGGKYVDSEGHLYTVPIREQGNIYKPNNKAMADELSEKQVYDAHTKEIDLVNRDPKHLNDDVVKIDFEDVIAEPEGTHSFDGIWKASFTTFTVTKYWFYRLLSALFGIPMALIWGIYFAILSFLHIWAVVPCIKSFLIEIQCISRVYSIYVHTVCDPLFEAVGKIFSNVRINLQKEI

In this experiment the target is epidermal growth factor receptor (human (endogenous in MCF-10A and MDA-MB-231)) (UniProt P00533). Nature of the experiment: co-IP; normal- and high-density MCF-10A and MDA-MB-231 cells lysed in IP buffer (50 mmol/L Tris-HCl, 150 mmol/L NaCl, 1% Triton X-100, 60 mmol/L OGP, pH 8.0); supernatants immunoprecipitated with EGFR agarose-conjugated antibody overnight at 4°C; control normal rabbit IgG with Protein A/G PLUS-Agarose; western blot.

Results are given in words; binding and its absence hold for the method and conditions named. In cells and extracts the contact can be indirect. Some binding calls cover weakened binding; strength is not graded here.

As to caveolin-1 (from UniProt Q03135 1-178), the binding result is given as “binds”.

B1: flotillin-2 (protein, UniProt Q14254 1-428)
chain: MGNCHTVGPNEALVVSGGCCGSDYKQYVFGGWAWAWWCISDTQRISLEIMTLQPRCEDVETAEGVALTVTGVAQVKIMTEKELLAVACEQFLGKNVQDIKNVVLQTLEGHLRSILGTLTVEQIYQDRDQFAKLVREVAAPDVGRMGIEILSFTIKDVYDKVDYLSSLGKTQTAVVQRDADIGVAEAERDAGIREAECKKEMLDVKFMADTKIADSKRAFELQKSAFSEEVNIKTAEAQLAYELQGAREQQKIRQEEIEIEVVQRKKQIAVEAQEILRTDKELIATVRRPAEAEAHRIQQIAEGEKVKQVLLAQAEAEKIRKIGEAEAAVIEAMGKAEAERMKLKAEAYQKYGDAAKMALVLEALPQIAAKIAAPLTKVDEIVVLSGDNSKVTSEVNRLLAELPASVHALTGVDLSKIPLIKKATGVQV
In the case of B1, the binding result is “binds”.

B2: flotillin-1 (protein, UniProt O75955 1-427)
chain: MFFTCGPNEAMVVSGFCRSPPVMVAGGRVFVLPCIQQIQRISLNTLTLNVKSEKVYTRHGVPISVTGIAQVKIQGQNKEMLAAACQMFLGKTEAEIAHIALETLEGHQRAIMAHMTVEEIYKDRQKFSEQVFKVASSDLVNMGISVVSYTLKDIHDDQDYLHSLGKARTAQVQKDARIGEAEAKRDAGIREAKAKQEKVSAQYLSEIEMAKAQRDYELKKAAYDIEVNTRRAQADLAYQLQVAKTKQQIEEQRVQVQVVERAQQVAVQEQEIARREKELEARVRKPAEAERYKLERLAEAEKSQLIMQAEAEAASVRMRGEAEAFAIGARARAEAEQMAKKAEAFQLYQEAAQLDMLLEKLPQVAEEISGPLTSANKITLVSSGSGTMGAAKVTGEVLDILTRLPESVERLTGVSISQVNHKPLRTA
B2: the binding entry was “binds”.
